In PMC12411639:
These are yes or no findings as the source states them, for the method shown. In cells and extracts the contact can be indirect. Some results given as binding are weak or reduced against the parent protein; the word gives no strength.

The chains behind the UniProt entries cited, without tags or fusion partners. Residues count along the entry.
UniProt P45974: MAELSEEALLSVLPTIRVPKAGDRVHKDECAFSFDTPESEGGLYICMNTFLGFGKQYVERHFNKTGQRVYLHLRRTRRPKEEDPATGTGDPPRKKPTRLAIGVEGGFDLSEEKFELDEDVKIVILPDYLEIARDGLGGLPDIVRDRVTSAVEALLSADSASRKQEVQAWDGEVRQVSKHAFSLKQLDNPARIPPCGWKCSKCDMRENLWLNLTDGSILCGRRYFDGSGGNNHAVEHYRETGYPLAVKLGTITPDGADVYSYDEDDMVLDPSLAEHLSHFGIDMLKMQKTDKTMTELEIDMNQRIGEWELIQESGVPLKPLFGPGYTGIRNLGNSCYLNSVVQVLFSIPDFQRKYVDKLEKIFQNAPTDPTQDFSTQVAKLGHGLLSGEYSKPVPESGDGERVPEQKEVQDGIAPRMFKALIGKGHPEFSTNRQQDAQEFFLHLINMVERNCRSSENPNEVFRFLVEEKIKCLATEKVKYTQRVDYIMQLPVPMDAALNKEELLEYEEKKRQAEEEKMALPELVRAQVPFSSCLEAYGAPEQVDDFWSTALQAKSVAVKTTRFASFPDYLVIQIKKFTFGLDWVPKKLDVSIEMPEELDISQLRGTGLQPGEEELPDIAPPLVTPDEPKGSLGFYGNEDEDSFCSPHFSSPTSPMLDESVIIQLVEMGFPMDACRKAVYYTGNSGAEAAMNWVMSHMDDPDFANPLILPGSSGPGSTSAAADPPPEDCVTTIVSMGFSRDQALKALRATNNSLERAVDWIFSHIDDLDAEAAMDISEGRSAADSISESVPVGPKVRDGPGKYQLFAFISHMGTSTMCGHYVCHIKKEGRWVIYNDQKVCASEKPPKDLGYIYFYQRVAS
UniProt O95881, residues 27-172: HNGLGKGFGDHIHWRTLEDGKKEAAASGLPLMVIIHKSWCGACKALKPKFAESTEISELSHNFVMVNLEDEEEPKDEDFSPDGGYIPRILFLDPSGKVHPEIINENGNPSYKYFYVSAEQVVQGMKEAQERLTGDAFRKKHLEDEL
UniProt P01106: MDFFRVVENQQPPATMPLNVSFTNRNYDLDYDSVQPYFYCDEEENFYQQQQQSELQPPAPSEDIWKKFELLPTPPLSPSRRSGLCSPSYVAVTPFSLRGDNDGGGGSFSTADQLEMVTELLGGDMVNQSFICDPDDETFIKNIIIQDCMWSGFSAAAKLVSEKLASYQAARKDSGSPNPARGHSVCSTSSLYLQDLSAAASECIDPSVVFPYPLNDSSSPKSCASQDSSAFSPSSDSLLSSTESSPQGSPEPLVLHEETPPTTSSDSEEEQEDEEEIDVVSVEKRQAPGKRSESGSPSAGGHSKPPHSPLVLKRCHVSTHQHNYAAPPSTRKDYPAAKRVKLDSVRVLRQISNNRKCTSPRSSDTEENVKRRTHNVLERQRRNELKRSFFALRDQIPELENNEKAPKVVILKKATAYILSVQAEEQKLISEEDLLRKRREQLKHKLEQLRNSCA

How the values were obtained:
HA-USP5 = HA-USP5 (UniProt P45974); test: co-IP; exogenous Flag-TXNDC12 and HA-USP5 in HNSCC cells, both orientations; RIPA lysis, primary antibody overnight at 4 °C, magnetic beads, western blot
Flag-TXNDC12 = Flag-TXNDC12 (UniProt O95881); test: as above
[1] = biological target: thioredoxin domain-containing protein 12 (TXNDC12), endogenous in HEK-293 cells (human (endogenous in HEK-293)) (UniProt O95881); test: co-IP; endogenous proteins in HEK-293 cells; RIPA lysis, primary antibody overnight at 4 °C, magnetic beads 6 h at 4 °C, western blot
[2] = biological target: USP5 in SCC-1 and SCC-23 cells (human (endogenous in SCC-1 and SCC-23)) (UniProt P45974); test: co-IP; SCC-1 and SCC-23 cells with TXNDC12 depletion (shTXNDC12) or TXNDC12 overexpression and their controls; RIPA lysis, primary antibody overnight at 4 °C, magnetic beads, western blot

Flag-TXNDC12 (from UniProt O95881 27-172)
binding (HA-USP5): binds

HA-USP5 (from UniProt P45974 1-858) (enzyme)
binding (Flag-TXNDC12): binds

USP5, endogenous in HEK-293 cells (from UniProt P45974 1-858) (enzyme)
binding [1]: binds

c-Myc in SCC-1 and SCC-23 cells (from UniProt P01106 1-454)
binding [2]: binds
